# Laboratory results published in PubChem BioAssay AID1259415 (National Center for Advancing Translational Sciences (NCATS), 2018).
# Hit rate of the full screen: of about 410,000 compounds, about 18,000 (4.4%) were called active. Inconclusive means that the source gave no clear call. Such entries were picked first, then a sample of the others. Rule as the data show it: active = activity change below about -60%; inconclusive = no clear call, values can overlap the other calls; inactive = above about -39%.
# Test: qHTS Assay for inhibitors of the human cytomegalovirus (HCMV)
# Conditions: HFF cells, HCMV-luciferase reporter, 72 h; at 57.5 µM; hits give low values
# Procedure, shortened: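 Cell-based, HFFs, 1000 cells/well, 16 h 37C; cpds in DMSO + HCMV-luc, MOI 1 PFU/cell; 72 h 37C; OneGlo luminescence after 5 min RT; norm. to buffer vs Salinomycin 10uM.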
# % is scaled to controls: 0 for no effect and ±100 for the full control effect.
row,SMILES,"activity change, negative = inhibition"
1,CCn1c(Oc2ccccc2)nc2c1c(=O)n(C)c(=O)n2C,active: -60.1%
2,COc1ccc(/C=N/NC(=O)c2ccc3nc[nH]c3c2)cc1OC,inconclusive: -50.4%
3,C=CCn1cnc2c(nnn2-c2cc(C)cc(C)c2)c1=O,inconclusive: -58.5%
4,Cc1cccc(NC(=O)c2cccc(S(=O)(=O)N3CCCCC3)c2)c1,inactive: -28.4%
5,CCOC(=O)c1c(N)n(-c2cc(C)cc(C)c2)c2nc3ccccc3nc12,inactive: 15.4%
6,COc1cc(NC(C)CCCN)c2ncccc2c1 (centres undefined),inconclusive: -45.7%
7,O=C(Nc1ccc2ccccc2c1)C(c1ccccc1)C1CCCC1 (centres undefined),inconclusive: -40.8%
8,Cc1cn2c(=O)cc(COC(=O)c3ccc(NC(=O)C(C)Oc4ccccc4)cc3)nc2s1 (centres undefined),inactive: -32.3%
9,CCOCCCNC(=O)c1c(NC(=O)c2nc(SC)ncc2Cl)sc2c1CCCC2,inactive: 47.5%
10,Cc1cc(C)c[n+](C(C)C(=O)c2ccc(Cl)cc2)c1 (centres undefined),inactive: 41.3%
11,O=C(Nc1ccc(S(=O)(=O)N2CCCC2)cc1)c1cc(=O)c2ccccc2o1,inconclusive: -51.8%
12,COc1ccc(-n2c(=O)c3c4c(sc3n(Cc3ccc(C(C)(C)C)cc3)c2=O)CCC4)c(OC)c1,inconclusive: -43.6%
13,Cc1nc(SCC(=O)Nc2nc3ccccc3s2)c(C#N)c(C)c1C,active: -94.5%
14,Cc1ccc(Cl)cc1N1CCN(C(=O)c2ccc3c(c2)N(Cc2ccccc2)CCS3)CC1,inconclusive: -44%
15,O=C(CCC(=O)OCc1ccc(Cl)cc1)Nc1ccccc1,inconclusive: -49.4%
16,CC1CCN(C(=O)COC(=O)c2cc([N+](=O)[O-])ccc2N2CCOCC2)CC1,inactive: -16.2%
17,O=c1[nH]c(=O)n([C@H]2C[C@H](O)[C@@H](CO)O2)cc1Br,inactive: -25%
18,COc1ccc(CC2=CC(=O)c3ccccc3C2=O)cc1,active: -96.6%
19,O=C(Nc1ccc(F)cc1)c1csc(Cc2ccccc2)n1,inactive: 37.1%
20,CCOc1ccc(Br)cc1S(=O)(=O)Nc1cccc(-c2ccc(OC)nn2)c1,inactive: 16.9%
21,C=C1C[C@H](O)[C@@H]2[C@H](OC(=O)[C@H]2C)[C@H]2[C@H](C)[C@@H](O)C[C@@H]12,inactive: 1.45%
22,Nc1nc[nH]c(=O)c1N=Cc1ccccc1,inconclusive: -46.9%
23,CC(C)(C)SCCNC(=O)CN(c1ccc(F)cc1)S(=O)(=O)c1ccccc1,inconclusive: -43.1%
24,O=C1CC(NS(=O)(=O)c2cccnc2)CN1c1ccc(Cl)cc1 (centres undefined),inconclusive: -42.5%
25,COC(=O)C(Cc1csc2ccc(Cl)cc12)NC(=O)c1ccc(Cl)cc1 (centres undefined),inactive: 6.39%
26,Cc1ccccc1OCc1nc2ccccc2c(=O)n1/N=C/c1cn[nH]c1-c1ccc(Br)cc1,inconclusive: -53.3%
27,CCn1c(SCC(=O)N2CCc3ccccc32)nnc1-c1ccco1,inconclusive: -46.9%

row,SMILES,"activity change, negative = inhibition"
1,COc1ccc2c(c1)sc1nc(-c3ccccc3)cn12,active: -97.9%
2,C/C(N)=C(/C#N)C(=O)CSc1nc2cc(Cl)ccc2c(=O)n1Cc1ccco1,inconclusive: -51.3%
3,CSc1ccccc1NC(=O)CSCc1ccc(Br)cc1,inconclusive: -40%
4,O=C(Nc1ccc([N+](=O)[O-])cc1)C1CC1(c1ccccc1)c1ccccc1 (centres undefined),inactive: 34.5%
5,CCCCN(C(=O)CSc1n[nH]c(-c2ccc(C)cc2)n1)c1c(N)n(CCCC)c(=O)[nH]c1=O,inconclusive: -48.7%
6,Cc1ccc(NC(=O)CCn2c(=O)c3cccn3c3ccccc32)cc1Cl,inactive: -0.877%
7,CN1C(=O)C(O)(CC(=O)/C=C/c2ccco2)c2ccccc21 (centres undefined),inactive: -28%
8,O=C(N[C@H]1CC[C@@]23CCCN2C(=O)CCC[C@H]3[C@H]1Cc1ccccc1)C(c1ccccc1)c1ccccc1,inactive: -18.2%
9,C/C=C/c1cccc(-c2nc(C(=O)NC3Cc4ccccc4C3)cc3c2[C@@H](CCO)N(C(C)=O)C3)c1,inconclusive: -45.5%
10,CCn1c(SC(C)C)nnc1-c1cc(-c2ccccc2)sc1N,inconclusive: -52.2%
11,Cc1cccc(C2c3c(n(C)c(=O)n(C)c3=O)N=C3c4ccccc4C(=O)C32)c1 (centres undefined),inconclusive: -49.6%
12,Cc1c(/C=C/C(=O)c2ccc(C(C)C)cc2)cnn1C,active: -87.1%
13,Cc1ccc(N(Cc2ccc(C(=O)NN=C3CCN(C)CC3)cc2)S(C)(=O)=O)cc1C,inconclusive: -44.9%
14,COc1ccc(N2CCN(CCCn3c(=S)[nH]c4ncccc4c3=O)CC2)cc1,inconclusive: -58.5%
15,COc1cc(C(C)=O)ccc1COc1ccc(C(=O)O)cc1OC,inactive: 24.4%
16,O=C(c1ccc(Cl)c(Cl)c1)c1cc(-c2ccccn2)c(N2CCOCC2)s1,active: -74.9%
17,CCOc1ccccc1CN1CCNC(=O)C1CC(=O)N(C)Cc1cnccn1 (centres undefined),inactive: -21.1%
18,CS(=O)(=O)N(CC(=O)N1CCCCCC1)c1cccc(Br)c1,inactive: 16.9%
19,COc1ccc(C2SCC(=O)N2c2ccc(OC)cc2)cc1 (centres undefined),inactive: 5.64%
20,COC(=O)c1c(-c2ccc(C)cc2)csc1NC(=O)c1c(-c2ccccc2)noc1C,active: -70.6%
21,Cc1c(C(=O)Nc2ccc(S(=O)(=O)N(C)C3CCN(C)CC3)cc2)oc2ccccc12,inconclusive: -47.3%
22,O=C(COc1ccc(Cl)cc1)Nc1ccc(Cl)cc1C(=O)c1ccccc1,inconclusive: -42.4%
23,COC(=O)C1=C(C)N(C)C(=NCc2ccc3c(c2)OCO3)NC1c1cccc(F)c1 (centres undefined),inconclusive: -56.6%
24,COc1cc2c(cc1NC(=S)NC(=O)c1c(OC)cccc1OC)oc1ccccc12,inconclusive: -41.2%
25,Cc1cccc(N2CCN(c3ccc4cc(S(=O)(=O)N5CCCCC5)ccc4n3)CC2C)c1 (centres undefined),inconclusive: -46.2%
26,C/C(N)=C(/C#N)C(=O)CSc1nc(-c2ccccc2)c(-c2ccccc2)o1,inactive: -29.5%
27,Cc1c(C(=O)NNC(=O)c2csc(N3CCOCC3)n2)cccc1[N+](=O)[O-],inconclusive: -46.6%

# 2 neighbouring entries already listed, for reference:
row,SMILES,"activity change, negative = inhibition"
4,O=C(Nc1ccc([N+](=O)[O-])cc1)C1CC1(c1ccccc1)c1ccccc1 (centres undefined),inactive: 34.5%
5,CCCCN(C(=O)CSc1n[nH]c(-c2ccc(C)cc2)n1)c1c(N)n(CCCC)c(=O)[nH]c1=O,inconclusive: -48.7%
